PubChem BioAssay AID743121 | NCATS | 2013
Here is one part, drawn at random, of about 26,000 reagents. In the full data, 167 (0.63%) got an active call. 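Calls are per gene from RSA p-values that are not deposited; an individual active-marked siRNA can sensitise only weakly.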 The numbers tell different reagents against one gene apart.

Test: 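Knock-downs that sensitise breast cancer cells to camptothecin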 (primary screen)
Cell system: MDA-MB-231 cells, a human breast cancer line
Reagent: single siRNA against human genes, 20 nM siRNA (0.8 pmol per well)
Timing: 120 h (drug added 48 h after transfection, read 72 h later)
Conditions: camptothecin 20 nM (about EC30) for 72 h; vehicle 0.1% DMSO in parallel plates
Measured: 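Cell viability by ATP luminescence (CellTiter-Glo) as % of non-targeting siRNA wells, and the log2 ratio of viability without drug over viability with camptothecin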
Reading the numbers: log2 vehicle/camptothecin viability: higher = stronger sensitisation to camptothecin; viability with camptothecin and viability without drug: higher = more viable cells
Call rule: 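Each gene scored by redundant siRNA activity (RSA) over its individual siRNA ratios; a gene is called active at p < 0.001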

| gene symbol | siRNA no. | log2 vehicle/camptothecin viability | viability with camptothecin (% of control) | viability without drug (% of control) | call |
| --- | --- | --- | --- | --- | --- |
| PDXK (pyridoxal kinase) | 1 | -0.0136 | 80.1 | 79.4 | inactive |
| PDXK (pyridoxal kinase) | 2 | 0.151 | 94.4 | 105 | inactive |
| PDXK (pyridoxal kinase) | 3 | -0.623 | 80.5 | 52.3 | inactive |
| PDXK (pyridoxal kinase) | 4 | -0.403 | 90.1 | 68.1 | inactive |
| IFNGR1 (interferon gamma receptor 1) | 1 | 0.0413 | 97.3 | 100 | inactive |
| IFNGR1 (interferon gamma receptor 1) | 2 | -0.199 | 107 | 93.1 | inactive |
| IFNGR1 (interferon gamma receptor 1) | 3 | 0.0692 | 80.3 | 84.3 | inactive |
| IFNGR1 (interferon gamma receptor 1) | 4 | 0.0976 | 104 | 111 | inactive |
| CHRNE (cholinergic receptor nicotinic epsilon subunit) | 1 | -0.787 | 55.3 | 32.1 | inactive |
| CHRNE (cholinergic receptor nicotinic epsilon subunit) | 2 | 0.0824 | 10.5 | 11.1 | inactive |
| CHRNE (cholinergic receptor nicotinic epsilon subunit) | 3 | -0.356 | 34.2 | 26.7 | inactive |
| CHRNE (cholinergic receptor nicotinic epsilon subunit) | 4 | 0.189 | 90.4 | 103 | inactive |
| CSNK1G3 (casein kinase 1 gamma 3) | 1 | -0.802 | 38.7 | 22.2 | inactive |
| CSNK1G3 (casein kinase 1 gamma 3) | 2 | -0.085 | 41.4 | 39 | inactive |
| CSNK1G3 (casein kinase 1 gamma 3) | 3 | 0.713 | 26.6 | 43.6 | inactive |
| CSNK1G3 (casein kinase 1 gamma 3) | 4 | -0.0804 | 102 | 96.3 | inactive |
| C1D (C1D nuclear receptor corepressor) | 1 | -0.0499 | 93.6 | 90.4 | inactive |
| C1D (C1D nuclear receptor corepressor) | 2 | -0.125 | 108 | 98.9 | inactive |
| C1D (C1D nuclear receptor corepressor) | 3 | 0.218 | 59.9 | 69.7 | inactive |
| C1D (C1D nuclear receptor corepressor) | 4 | -0.198 | 31.3 | 27.3 | inactive |
| LGMN (legumain) | 1 | 0.137 | 69.2 | 76.1 | inactive |
| LGMN (legumain) | 2 | 0.0301 | 53.3 | 54.4 | inactive |
| LGMN (legumain) | 3 | -0.264 | 58.6 | 48.8 | inactive |
| LGMN (legumain) | 4 | -0.18 | 105 | 92.9 | inactive |
| NALF2 (NALCN channel auxiliary factor 2) | 1 | -0.304 | 57.6 | 46.6 | inactive |
| NALF2 (NALCN channel auxiliary factor 2) | 2 | -0.252 | 96.8 | 81.3 | inactive |
| NALF2 (NALCN channel auxiliary factor 2) | 3 | -0.0372 | 62.6 | 61 | inactive |
| NALF2 (NALCN channel auxiliary factor 2) | 4 | -0.179 | 96.4 | 85.2 | inactive |
| BMPR1B (bone morphogenetic protein receptor type 1B) | 1 | -0.487 | 65.4 | 46.7 | inactive |
| BMPR1B (bone morphogenetic protein receptor type 1B) | 2 | -0.43 | 96.8 | 71.8 | inactive |
| BMPR1B (bone morphogenetic protein receptor type 1B) | 3 | -0.173 | 108 | 96 | inactive |
| BMPR1B (bone morphogenetic protein receptor type 1B) | 4 | 0.00623 | 74.4 | 74.7 | inactive |
| GMPR2 (guanosine monophosphate reductase 2) | 1 | 0.0132 | 44.6 | 45 | inactive |
| GMPR2 (guanosine monophosphate reductase 2) | 2 | 0.0796 | 40.5 | 42.8 | inactive |
| GMPR2 (guanosine monophosphate reductase 2) | 3 | -0.358 | 89.2 | 69.6 | inactive |
| GMPR2 (guanosine monophosphate reductase 2) | 4 | -0.0973 | 39.2 | 36.7 | inactive |
| TIE1 | 1 | -0.272 | 112 | 92.5 | inactive |
| TIE1 | 2 | 0.989 | 47.3 | 93.8 | inactive |
| TIE1 | 3 | -0.248 | 102 | 85.6 | inactive |
| TIE1 | 4 | 0.0825 | 48.2 | 51.1 | inactive |
| RPS6KA6 (ribosomal protein S6 kinase A6) | 1 | -0.134 | 50.9 | 46.4 | inactive |
| RPS6KA6 (ribosomal protein S6 kinase A6) | 2 | 1.42 | 15.1 | 40.6 | inactive |
| RPS6KA6 (ribosomal protein S6 kinase A6) | 3 | -0.137 | 113 | 102 | inactive |
| RPS6KA6 (ribosomal protein S6 kinase A6) | 4 | -0.392 | 41.3 | 31.5 | inactive |
| NPTXR (neuronal pentraxin receptor) | 1 | 0.0079 | 104 | 104 | inactive |
| NPTXR (neuronal pentraxin receptor) | 2 | -0.219 | 97.8 | 84 | inactive |
| NPTXR (neuronal pentraxin receptor) | 3 | -0.43 | 116 | 86.3 | inactive |
| NPTXR (neuronal pentraxin receptor) | 4 | -0.343 | 51.9 | 40.9 | inactive |
| ICE2 (interactor of little elongation complex ELL subunit 2) | 1 | -0.0427 | 59.7 | 57.9 | inactive |
| ICE2 (interactor of little elongation complex ELL subunit 2) | 2 | -0.101 | 92.3 | 86.1 | inactive |
| ICE2 (interactor of little elongation complex ELL subunit 2) | 3 | -0.48 | 81.7 | 58.6 | inactive |
| ICE2 (interactor of little elongation complex ELL subunit 2) | 4 | 0.127 | 99.4 | 109 | inactive |
| EDN1 (endothelin 1) | 1 | 0.587 | 48.7 | 73.1 | inactive |
| EDN1 (endothelin 1) | 2 | -0.368 | 82 | 63.5 | inactive |
| EDN1 (endothelin 1) | 3 | -0.289 | 113 | 92.1 | inactive |
| EDN1 (endothelin 1) | 4 | 0.272 | 71.3 | 86.2 | inactive |
| DHRS13 (dehydrogenase/reductase 13) | 1 | 0.177 | 81.5 | 92.1 | inactive |
| DHRS13 (dehydrogenase/reductase 13) | 2 | 0.179 | 26.2 | 29.6 | inactive |
| DHRS13 (dehydrogenase/reductase 13) | 3 | -0.325 | 118 | 94 | inactive |
| DHRS13 (dehydrogenase/reductase 13) | 4 | 0.121 | 70.9 | 77.1 | inactive |
| SLC7A6 | 1 | -0.196 | 96.6 | 84.3 | inactive |
| SLC7A6 | 2 | -0.266 | 38.6 | 32.1 | inactive |
| SLC7A6 | 3 | -0.116 | 92.7 | 85.5 | inactive |
| PPP6C (protein phosphatase 6 catalytic subunit) | 1 | -0.0474 | 107 | 104 | inactive |
| PPP6C (protein phosphatase 6 catalytic subunit) | 2 | 0.0316 | 66 | 67.4 | inactive |
| PPP6C (protein phosphatase 6 catalytic subunit) | 3 | -0.171 | 59.7 | 53 | inactive |
| PPP6C (protein phosphatase 6 catalytic subunit) | 4 | -0.491 | 105 | 74.9 | inactive |
| HTR1B (5-hydroxytryptamine receptor 1B) | 1 | -0.193 | 83.7 | 73.2 | inactive |
| HTR1B (5-hydroxytryptamine receptor 1B) | 2 | -0.334 | 98.8 | 78.4 | inactive |
| HTR1B (5-hydroxytryptamine receptor 1B) | 3 | -0.509 | 100 | 70.2 | inactive |
| HTR1B (5-hydroxytryptamine receptor 1B) | 4 | 0.493 | 58.3 | 82 | inactive |
